No constants are given. Whether binding was seen depends on the method and setting. In cells and extracts the contact can be indirect. Some results given as binding are weak or reduced against the parent protein; the word gives no strength.
Assays:
Assay in all cases: pull-down; GST-hORF and FLAG-Hoxa1 co-expressed in COS7 or HEK293T; cleared lysate (Tris-HCl pH7.5 20mM, NaCl 120mM, EDTA 0.5mM, NP40 0.5%, glycerol 10%) overnight on glutathione-agarose beads, 3 washes; anti-FLAG western blot
[1] = target: T1, keratin associated protein 4-12 (human) (UniProt Q9BQ66)
T1 sequence: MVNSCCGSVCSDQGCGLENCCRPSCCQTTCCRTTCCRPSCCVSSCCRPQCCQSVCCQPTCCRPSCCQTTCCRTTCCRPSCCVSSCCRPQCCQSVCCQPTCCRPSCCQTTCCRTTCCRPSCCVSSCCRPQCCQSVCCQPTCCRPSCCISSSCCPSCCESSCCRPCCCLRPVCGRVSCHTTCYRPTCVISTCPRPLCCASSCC

Chains of the proteins cited; added tags and fusions are not shown.
UniProt O75865: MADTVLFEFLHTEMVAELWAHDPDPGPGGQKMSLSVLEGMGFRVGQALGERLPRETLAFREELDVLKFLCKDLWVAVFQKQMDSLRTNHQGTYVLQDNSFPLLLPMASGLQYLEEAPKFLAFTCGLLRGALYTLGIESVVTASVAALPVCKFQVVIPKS
UniProt Q9NR12: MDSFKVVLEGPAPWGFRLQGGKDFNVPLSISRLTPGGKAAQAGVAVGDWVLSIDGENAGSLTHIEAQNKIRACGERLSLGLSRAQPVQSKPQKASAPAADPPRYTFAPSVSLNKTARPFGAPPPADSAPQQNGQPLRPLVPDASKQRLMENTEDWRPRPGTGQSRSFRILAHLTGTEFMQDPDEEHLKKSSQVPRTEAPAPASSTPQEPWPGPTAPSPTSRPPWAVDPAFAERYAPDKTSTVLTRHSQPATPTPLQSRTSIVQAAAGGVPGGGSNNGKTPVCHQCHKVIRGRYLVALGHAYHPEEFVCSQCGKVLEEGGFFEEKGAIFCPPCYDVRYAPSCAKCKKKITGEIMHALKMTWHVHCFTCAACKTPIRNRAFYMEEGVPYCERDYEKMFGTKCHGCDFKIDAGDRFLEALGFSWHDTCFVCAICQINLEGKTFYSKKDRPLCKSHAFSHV
UniProt P09022: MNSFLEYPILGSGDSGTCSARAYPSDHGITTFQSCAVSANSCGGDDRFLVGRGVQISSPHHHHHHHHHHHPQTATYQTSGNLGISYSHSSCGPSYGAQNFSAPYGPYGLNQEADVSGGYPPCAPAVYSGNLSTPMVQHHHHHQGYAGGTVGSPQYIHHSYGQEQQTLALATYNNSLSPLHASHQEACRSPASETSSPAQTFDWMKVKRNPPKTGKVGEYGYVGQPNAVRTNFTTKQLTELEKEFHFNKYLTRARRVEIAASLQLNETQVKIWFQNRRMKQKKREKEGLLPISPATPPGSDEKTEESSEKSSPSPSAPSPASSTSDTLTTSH

[2] = target: T2, zinc finger and BTB domain containing 16 (human) (UniProt Q05516)
T2 sequence: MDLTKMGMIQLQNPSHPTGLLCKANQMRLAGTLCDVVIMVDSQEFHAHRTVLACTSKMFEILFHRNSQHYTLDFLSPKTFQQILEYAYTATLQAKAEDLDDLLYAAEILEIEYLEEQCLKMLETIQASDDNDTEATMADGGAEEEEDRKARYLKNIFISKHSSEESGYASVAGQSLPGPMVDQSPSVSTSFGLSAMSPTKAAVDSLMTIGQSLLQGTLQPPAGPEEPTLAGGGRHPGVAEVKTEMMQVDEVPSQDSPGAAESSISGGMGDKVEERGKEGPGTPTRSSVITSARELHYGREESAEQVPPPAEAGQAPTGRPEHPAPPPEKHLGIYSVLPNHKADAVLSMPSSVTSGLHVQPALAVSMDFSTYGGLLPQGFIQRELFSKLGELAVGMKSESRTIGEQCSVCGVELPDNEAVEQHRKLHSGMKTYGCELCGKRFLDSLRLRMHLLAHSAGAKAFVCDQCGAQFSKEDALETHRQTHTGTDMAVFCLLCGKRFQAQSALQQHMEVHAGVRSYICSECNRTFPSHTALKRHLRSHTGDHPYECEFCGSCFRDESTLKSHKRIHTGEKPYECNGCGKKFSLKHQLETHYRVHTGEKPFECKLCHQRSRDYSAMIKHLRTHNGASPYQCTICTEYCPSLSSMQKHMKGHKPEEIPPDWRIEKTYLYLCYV

[3] = target: trafficking protein particle complex 6A (human) (UniProt O75865)
[4] = target: T3, lectin, galactoside-binding, soluble, 13 (human) (UniProt Q9UHV8)
T3 sequence: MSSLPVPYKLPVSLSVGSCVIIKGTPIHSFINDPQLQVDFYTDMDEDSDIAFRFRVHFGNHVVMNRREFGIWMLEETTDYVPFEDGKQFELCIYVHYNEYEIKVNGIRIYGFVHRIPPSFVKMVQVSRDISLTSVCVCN

[5] = target: PDZ and LIM domain 7 (human) (UniProt Q9NR12)
[6] = target: T4, ligand of numb-protein X 2 (human) (UniProt Q8N448)
T4 sequence: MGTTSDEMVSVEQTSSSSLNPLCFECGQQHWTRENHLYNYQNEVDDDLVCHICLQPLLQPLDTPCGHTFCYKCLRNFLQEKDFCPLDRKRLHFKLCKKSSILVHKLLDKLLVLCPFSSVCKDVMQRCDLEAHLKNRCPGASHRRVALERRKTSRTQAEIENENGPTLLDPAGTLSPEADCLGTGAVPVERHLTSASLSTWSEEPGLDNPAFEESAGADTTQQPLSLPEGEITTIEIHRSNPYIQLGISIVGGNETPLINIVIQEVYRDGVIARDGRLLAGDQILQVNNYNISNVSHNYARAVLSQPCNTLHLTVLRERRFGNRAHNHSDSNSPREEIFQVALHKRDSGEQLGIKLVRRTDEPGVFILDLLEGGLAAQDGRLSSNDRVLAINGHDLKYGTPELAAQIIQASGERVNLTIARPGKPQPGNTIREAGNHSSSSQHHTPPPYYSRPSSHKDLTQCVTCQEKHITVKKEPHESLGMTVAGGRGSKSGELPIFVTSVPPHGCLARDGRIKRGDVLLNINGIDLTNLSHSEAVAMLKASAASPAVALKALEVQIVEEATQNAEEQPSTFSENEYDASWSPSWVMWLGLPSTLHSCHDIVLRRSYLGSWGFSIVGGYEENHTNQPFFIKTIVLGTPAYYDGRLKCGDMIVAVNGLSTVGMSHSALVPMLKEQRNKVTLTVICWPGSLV

binding [1]: binds | binding [2]: binds | binding [3]: binds | binding [4]: binds | binding [5]: binds | binding [6]: binds
Substance: FLAG-Hoxa1 (from UniProt P09022 1-331)
